Assay results as given in article PMC4237283.

By UniProt entry, the sequences of proteins in these tests, tags left out. Where a name states a change or a piece, a line headed by the entry shows the natural chain unless it says otherwise.
UniProt P98161: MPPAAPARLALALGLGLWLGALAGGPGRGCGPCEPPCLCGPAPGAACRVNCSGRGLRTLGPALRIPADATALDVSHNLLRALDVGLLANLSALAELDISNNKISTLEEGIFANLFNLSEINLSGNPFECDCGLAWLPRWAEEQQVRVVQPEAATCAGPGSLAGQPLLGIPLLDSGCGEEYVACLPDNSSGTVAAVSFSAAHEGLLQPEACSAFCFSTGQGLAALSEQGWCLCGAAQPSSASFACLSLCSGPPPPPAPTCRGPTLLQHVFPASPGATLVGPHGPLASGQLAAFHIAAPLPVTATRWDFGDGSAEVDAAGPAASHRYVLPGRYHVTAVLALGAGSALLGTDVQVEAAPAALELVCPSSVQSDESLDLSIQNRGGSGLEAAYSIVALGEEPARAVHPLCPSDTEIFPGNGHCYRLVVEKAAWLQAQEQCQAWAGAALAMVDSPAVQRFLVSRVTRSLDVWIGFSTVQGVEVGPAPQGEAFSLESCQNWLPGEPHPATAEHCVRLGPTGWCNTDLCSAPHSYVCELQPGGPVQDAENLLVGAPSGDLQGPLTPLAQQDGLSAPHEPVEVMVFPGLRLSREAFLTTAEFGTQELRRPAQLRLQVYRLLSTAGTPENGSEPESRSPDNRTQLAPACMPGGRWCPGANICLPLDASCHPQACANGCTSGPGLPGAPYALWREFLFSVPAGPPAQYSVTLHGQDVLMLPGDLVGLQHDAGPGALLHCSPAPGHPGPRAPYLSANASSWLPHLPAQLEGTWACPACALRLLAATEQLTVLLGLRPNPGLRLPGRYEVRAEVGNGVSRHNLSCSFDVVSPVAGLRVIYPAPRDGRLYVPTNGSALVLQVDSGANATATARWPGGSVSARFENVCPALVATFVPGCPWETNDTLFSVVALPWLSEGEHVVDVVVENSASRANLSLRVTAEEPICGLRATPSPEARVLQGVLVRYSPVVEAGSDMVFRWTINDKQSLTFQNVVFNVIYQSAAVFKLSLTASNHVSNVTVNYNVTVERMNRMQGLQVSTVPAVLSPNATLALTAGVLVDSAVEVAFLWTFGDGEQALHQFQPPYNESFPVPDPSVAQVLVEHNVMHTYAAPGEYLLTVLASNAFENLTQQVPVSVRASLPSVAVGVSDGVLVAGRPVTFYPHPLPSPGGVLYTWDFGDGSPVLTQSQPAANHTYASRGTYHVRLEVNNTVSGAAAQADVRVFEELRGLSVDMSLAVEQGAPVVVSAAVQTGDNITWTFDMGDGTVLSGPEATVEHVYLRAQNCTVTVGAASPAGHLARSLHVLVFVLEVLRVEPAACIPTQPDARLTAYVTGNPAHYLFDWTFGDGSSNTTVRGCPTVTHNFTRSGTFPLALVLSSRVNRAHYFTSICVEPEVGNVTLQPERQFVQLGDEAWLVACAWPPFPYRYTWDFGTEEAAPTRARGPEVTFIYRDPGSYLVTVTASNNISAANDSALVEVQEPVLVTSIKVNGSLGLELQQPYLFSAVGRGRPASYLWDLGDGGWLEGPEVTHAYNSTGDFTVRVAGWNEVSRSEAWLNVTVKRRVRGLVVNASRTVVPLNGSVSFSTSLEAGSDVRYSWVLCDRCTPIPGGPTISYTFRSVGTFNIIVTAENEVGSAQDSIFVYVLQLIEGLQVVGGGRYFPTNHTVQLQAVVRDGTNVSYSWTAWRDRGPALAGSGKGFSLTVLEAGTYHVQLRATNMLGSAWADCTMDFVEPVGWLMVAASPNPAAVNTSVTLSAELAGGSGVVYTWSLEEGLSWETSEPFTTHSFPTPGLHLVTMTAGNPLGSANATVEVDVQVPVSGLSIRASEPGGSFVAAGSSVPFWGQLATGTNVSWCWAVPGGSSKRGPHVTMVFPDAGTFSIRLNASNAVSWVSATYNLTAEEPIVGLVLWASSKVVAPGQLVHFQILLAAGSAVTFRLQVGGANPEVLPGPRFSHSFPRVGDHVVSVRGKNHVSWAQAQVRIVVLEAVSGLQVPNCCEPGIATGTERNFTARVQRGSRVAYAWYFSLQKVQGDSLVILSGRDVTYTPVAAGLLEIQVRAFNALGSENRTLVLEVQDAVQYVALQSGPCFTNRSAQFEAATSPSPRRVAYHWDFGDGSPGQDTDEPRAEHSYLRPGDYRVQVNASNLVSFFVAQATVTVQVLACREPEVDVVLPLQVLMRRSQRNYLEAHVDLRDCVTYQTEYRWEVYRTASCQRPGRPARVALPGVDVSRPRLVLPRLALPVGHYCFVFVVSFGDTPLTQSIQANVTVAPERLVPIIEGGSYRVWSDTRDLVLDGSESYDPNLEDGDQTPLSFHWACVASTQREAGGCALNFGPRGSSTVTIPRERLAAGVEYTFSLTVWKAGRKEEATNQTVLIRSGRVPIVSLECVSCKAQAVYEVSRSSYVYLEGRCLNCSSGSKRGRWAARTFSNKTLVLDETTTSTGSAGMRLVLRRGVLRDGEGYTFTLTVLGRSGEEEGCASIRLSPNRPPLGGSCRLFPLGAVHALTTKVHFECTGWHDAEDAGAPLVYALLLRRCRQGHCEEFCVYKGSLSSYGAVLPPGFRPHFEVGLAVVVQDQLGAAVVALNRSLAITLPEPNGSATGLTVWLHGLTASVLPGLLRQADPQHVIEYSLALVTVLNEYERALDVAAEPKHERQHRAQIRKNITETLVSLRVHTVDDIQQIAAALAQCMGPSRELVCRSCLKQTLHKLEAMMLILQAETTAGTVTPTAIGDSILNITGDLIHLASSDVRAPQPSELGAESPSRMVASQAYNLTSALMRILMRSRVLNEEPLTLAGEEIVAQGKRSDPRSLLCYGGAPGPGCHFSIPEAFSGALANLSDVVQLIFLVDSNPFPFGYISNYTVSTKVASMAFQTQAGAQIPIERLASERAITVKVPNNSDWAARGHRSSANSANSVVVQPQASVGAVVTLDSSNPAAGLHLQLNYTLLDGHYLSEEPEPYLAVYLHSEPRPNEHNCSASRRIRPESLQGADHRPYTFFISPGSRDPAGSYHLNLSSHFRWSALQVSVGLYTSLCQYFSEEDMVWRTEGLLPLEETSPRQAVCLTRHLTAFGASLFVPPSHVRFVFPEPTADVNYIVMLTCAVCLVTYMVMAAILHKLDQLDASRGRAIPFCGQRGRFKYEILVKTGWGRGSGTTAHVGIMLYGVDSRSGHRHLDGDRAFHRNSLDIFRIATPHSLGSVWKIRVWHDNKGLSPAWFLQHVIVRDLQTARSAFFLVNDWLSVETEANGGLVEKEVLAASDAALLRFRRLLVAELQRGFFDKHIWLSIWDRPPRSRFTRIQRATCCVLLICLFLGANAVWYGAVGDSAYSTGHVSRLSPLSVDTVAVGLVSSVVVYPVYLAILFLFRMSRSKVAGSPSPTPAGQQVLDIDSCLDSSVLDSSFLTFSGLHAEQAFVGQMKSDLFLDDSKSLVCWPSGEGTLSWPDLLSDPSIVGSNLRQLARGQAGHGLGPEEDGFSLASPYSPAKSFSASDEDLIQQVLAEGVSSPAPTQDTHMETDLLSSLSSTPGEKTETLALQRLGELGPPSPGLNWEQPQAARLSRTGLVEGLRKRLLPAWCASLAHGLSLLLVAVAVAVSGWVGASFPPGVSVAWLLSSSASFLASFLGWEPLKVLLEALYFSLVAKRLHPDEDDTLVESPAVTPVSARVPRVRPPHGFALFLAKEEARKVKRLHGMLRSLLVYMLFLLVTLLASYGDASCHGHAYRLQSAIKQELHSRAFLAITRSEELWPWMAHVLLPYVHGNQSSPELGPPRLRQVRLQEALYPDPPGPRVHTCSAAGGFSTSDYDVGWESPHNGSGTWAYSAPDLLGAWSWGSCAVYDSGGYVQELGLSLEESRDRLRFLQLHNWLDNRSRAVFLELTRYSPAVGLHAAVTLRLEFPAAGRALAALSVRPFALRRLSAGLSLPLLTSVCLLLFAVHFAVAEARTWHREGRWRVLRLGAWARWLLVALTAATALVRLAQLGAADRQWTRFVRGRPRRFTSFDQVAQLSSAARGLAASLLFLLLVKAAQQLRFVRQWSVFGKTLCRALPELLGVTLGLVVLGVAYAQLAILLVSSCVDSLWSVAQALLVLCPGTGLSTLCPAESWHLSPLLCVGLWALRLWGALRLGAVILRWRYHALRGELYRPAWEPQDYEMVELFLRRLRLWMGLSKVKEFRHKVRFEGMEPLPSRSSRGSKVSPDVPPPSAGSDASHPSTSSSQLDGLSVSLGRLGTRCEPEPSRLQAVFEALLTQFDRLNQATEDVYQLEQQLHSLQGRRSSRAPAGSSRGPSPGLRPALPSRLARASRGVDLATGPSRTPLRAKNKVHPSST

B1: Rabep1 amino acids 465 to 799 (yeast two-hybrid clone TH10-3) (domain or fragment, UniProt O35550 465-799)
chain: GFMLTKDQERAIKAMTPEQEETASLLSSVTQGMESAYVSPSGYRLVSETEWNLLQKEVHNAGNKLGRRCDMCSNYEKQLQGIQIQEAETRDQVKKLQLMLRQANDQLEKTMKEKQELEDFLRQSAEDSSHQISALVLRAQASEVLLEELQQSFSQAKRDVQEQMAVLMQSREQVSEELVRLQKDNDSLQGKHSLHVSLQLAEDFILPDTVQVLRELVLKYRENIVHVRTAADHMEEKLKAEILFLKEQIQAEQCLKENLEETLQLEIENCKEEIASISSLKAELERIKVEKGQLESTLREKSQQLESLQEIKVNLEEQLKKETAAKATVEQLMFE
B2: Endogenous mouse Rabep1 (protein, UniProt O35551 1-862)
chain: MAQPGPAPQPDVSLQQRVAELEKINAEFLRAQQQLEQEFNQKRAKFKELYLAKEEDLKRQNAVLQAAQDDLGHLRTQLWEAQAEMENIKAIATVSENTKQEAIDEVKRQWREEVASLQAIMKETVRDYEHQFHLRLEQERAQWAQYRESAEREIADLRRRLSEGQEEENLENEMKKAQEDAEKLRSVVMPMEKEIAALKDKLTEAEDKIKELEASKVKELNHYLEAEKSCRTDLEMYVAVLNTQKSVLQEDAEKLRKELHEVCHLLEQERQQHNQLKHTWQKANDQFLESQRLLMRDMQRMEIVLTSEQLRQVEELKKKDQEEDEQQRVNKRKDNKKTDTEEEVKIPVVCALTQEESSTPLSNEEEHLDSTHGSVHSLDADLMLPSGDPFSKSDNDMFKDGLRRAQSTDSLGTSSSLQSKALGYNYKAKSAGNLDESDFGPLVGADSVSENFDTVSLGSLQMPSGFMLTKDQERAIKAMTPEQEETASLLSSVTQGMESAYVSPSGYRLVSETEWNLLQKEVHNAGNKLGRRCDMCSNYEKQLQGIQIQEAETRDQVKKLQLMLRQANDQLEKTMKEKQELEDFLKQSAEDSSHQISALVLRAQASEVLLEELQQSFSQAKRDVQEQMAVLMQSREQVSEELVRLQKDNDSLQGKHSLHVSLQLAEDFILPDTVEVLRELVLKYRENIVHVRTAADHMEEKLKAEILFLKEQIQAEQCLKENLEETLQLEIENCKEEIASISSLKAELERIKVEKGQLESTLREKSQQLESLQEMKVNLEEQLKKETAAKATVEQLMFEEKNKAQRLQTELDVSEQVQRDFVKLSQTLQVQLERIRQADSLERIRAILNDTKLTDINQLPET

Columns and labels:
[1] = target: Human PC1 215-amino-acid C-terminal tail fused to the GAL4 DNA-binding domain (human) (UniProt P98161); experiment: two-hybrid; GAL4 system, YRG-2 yeast; bait in pPC97 (GAL4 DNA-binding domain), prey in pPC86; positive interaction scored by growth on triple selective medium (Leu-, Trp-, His-) and positive β-gal activity
[2] = target: PC1-M1/M2, C-terminal 89 amino acids of PC1 containing the intact coiled-coil domain (human); experiment: as above
[3] = target: Myc-tagged truncated PC1 lacking the C-terminal 257 amino acids (Pkd1^ΔCMYC/ΔCMYC embryos) (mouse (endogenous knock-in in embryos)); experiment: co-IP; lysates of Pkd1^MYC/MYC, Pkd1^ΔCMYC/ΔCMYC and untagged wild-type mouse embryos; Myc-tagged PC1 immunoprecipitated (rabbit anti-Myc is listed among the IP antibodies); western blot

Binder	binding [1]	binding [2]	binding [3]
B1	binds	binds	
B2			no binding

Results are given in words; binding and its absence hold for the method and conditions named. For part of these data: Binding can be weak; no strength is given. For part of these data: Binding seen in cells or lysates may run through a third protein.
